Results from PubChem BioAssay AID493014 (National Center for Advancing Translational Sciences (NCATS), 2011).
The campaign covered roughly 340,000 compounds. About 170 (0.05%) were called active. Inconclusive means that the source gave no clear call. Such entries were picked first, then a sample of the others. Calls follow the shape of the dose curve; as a rule, active = well fitted inhibition curve with a large enough effect in the signal ratio, with a control signal flat (not every such curve was filed as active); inconclusive = small, poorly fitted or top-dose-only effect, or effect the other way, or a change in a side signal; inactive = flat fitted curve, though single readings scatter; the % refers to the signal ratio. A potency beside an inconclusive call is a rough fit, not a confirmed value.

Experiment: qHTS Assay to Find Inhibitors of Chronic Active B-Cell Receptor Signaling;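 as to activity change, negative = inhibition: plate controls were basal doxycycline-induced cells for no effect and cells given 10 µM MG132 for full effect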
Conditions: ABC-DLBCL IkBa-CBG/CBR reporter, luminescence ratio (green luciferase fused to IkBa over red control in TMD8 lymphoma cells), 4 h; activity change, negative = inhibition: at 46.1 µM (top of the series)
Procedure, shortened: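 TMD8 human ABC-DLBCL cells with doxycycline-inducible IκBα–green luciferase fusion and unfused red luciferase, in 0.5% FBS medium; compounds up to 46 uM, 4 h at 37C. Green/red luminescence ratio, filter-overlap corrected, fitted to concentration-response curves.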
Potency is read from the fitted curve at half-maximal effect.

| SMILES | activity change, negative = inhibition | Potency |
| --- | --- | --- |
| Cc1cc(C(=O)COC(=O)c2cccs2)c(C)n1-c1c(C)n(C)n(-c2ccccc2)c1=O | inconclusive: 7.8% |  |
| O=c1c2c(-c3ccccc3)csc2nc2c3ccccc3c(NCCN3CCOCC3)nn12 | inconclusive: 5.19% |  |
| O=C(COc1ccc(Br)cc1Cl)NC(=O)NC1CCCC1 | inconclusive: -5.98% |  |
| CC(C)(C)C(=O)/C=c1\[nH]c(=O)/c(=C\c2ccc(C#N)cc2)s1 | inconclusive: -10.5% |  |
| O=C(CSc1nnc(-c2ccccc2)n1Cc1ccco1)NCc1ccc2c(c1)OCO2 | inconclusive: 12.1% |  |
| COc1c(C)cc(C(=O)C2CCCN(S(=O)(=O)N(C)C)C2)cc1C (centres undefined) | inconclusive: 5.65% |  |
| C=CCN1C(=O)C(Cc2cccc(Cl)c2)S/C1=N/N=C/c1ccco1 (centres undefined) | inconclusive: 16.9% |  |
| CCOc1ccccc1NC(=O)CCS(=O)(=O)c1cccc2nsnc12 | inconclusive: -29.7% |  |
| O=C(Nc1ccc(N2CCOCC2)cc1)Nc1cnsn1 |  | inconclusive: 16.4 µM [falling, single point] |
| COc1ccc(O)c(C(=O)CC(=O)c2ccccc2)c1 | inactive |  |
| CC1(C)CC(=O)C2=C(C1)OC1=C(C(=O)CC(C)(C)C1)C2c1ccc(O)cc1O | inconclusive: 10.2% |  |
| CCCN1CC=C2C(C#N)=C(N)C(C#N)(C#N)C(c3cc(OC)ccc3OC)C2C1 (centres undefined) | inconclusive: 0.264% |  |
| O=C(c1cc(-c2ccc(Cl)cc2)on1)N1CCCC1 |  | inconclusive: 11.2 µM [falling, partial curve] |
| COC(=O)c1cc(=O)n(Cc2ccc(OC)c(OC)c2)c(=Nc2ccc(F)cc2)s1 | inactive |  |
| CC1CCC(NC(=O)Cn2c(=O)oc3ccccc32)CC1 (centres undefined) | inactive |  |
| O=C(Nc1nnc(-c2ccc(Cl)cc2)o1)C1=COCCO1 | inactive |  |
| COc1cc(OC)c(C(=O)O/N=C(\N)c2cccc(C)c2)cc1OC | inconclusive: -17.9% |  |
| O=C(N/N=C/c1ccc(Cl)s1)c1ccccc1[N+](=O)[O-] |  | inconclusive: 31.6 µM [falling, partial curve, poor fit] |
| Cc1ccc2nc(NC(=O)Cc3cccs3)sc2c1 |  | inconclusive: 23.1 µM [falling, partial curve] |
| CC(=O)Nc1ncnc2c1c(-c1ccc(Cl)cc1)nn2C(C)(C)C |  | inconclusive: 11.2 µM [falling, partial curve] |
| O=C(Nc1ccc2c(c1)CCC2)c1cc2ccccc2o1 |  | inconclusive: 23.1 µM [falling, partial curve] |
| CC(=O)Nc1ccc(NC(=O)CSC2=NS(=O)(=O)c3cc(F)ccc3N2)cc1 |  | inconclusive: 6.51 µM [falling, partial curve, poor fit] |
| COc1cccc(CNC(=O)CN(C)S(=O)(=O)c2ccc3c(c2)n(C)c(=O)c(=O)n3C)c1 | inactive |  |
| Cc1ccc(N=C2NC(=O)/C(=C/C=C/c3ccco3)S2)cc1 | inactive |  |
| O=C(Nc1ccccc1)Nc1ccc2c(c1)CCC2 |  | inconclusive: 35.5 µM [falling, single point] |
| COc1ccc2cc(C(=O)N/N=C/c3sc4ccccc4c3O)ccc2c1 |  | inconclusive: 16.4 µM [falling, partial curve] |
| Cc1cc(NC(=O)COc2ccc3ccccc3c2)no1 | inconclusive: 11.4% |  |

| SMILES | activity change, negative = inhibition | Potency |
| --- | --- | --- |
| CC12CCC(C(=O)N/N=C/c3ccc(O)cc3O)(OC1=O)C2(C)C (centres undefined) | inactive |  |
| CC(C(=O)O)c1cccc(C(=O)c2ccccc2)c1 (centres undefined) |  | inconclusive: 35.5 µM [rising, partial curve, poor fit] |
| COc1cc2sc(NC(=O)c3ccco3)nc2cc1Cl |  | inconclusive: 12.6 µM [falling, partial curve, poor fit] |
| CC(NC(=O)c1cc(COc2ccc3ncccc3c2)on1)c1ccc(F)cc1 (centres undefined) | inactive |  |
| Cc1nnc(NC(=O)c2sc3ccccc3c2Cl)s1 | inconclusive: -8.96% |  |
| CC(C)(C)CC(C)(C)c1ccc(O)c(CN2CCN(CCC#N)CC2)c1 | inconclusive: 1.1% |  |
| COCC(C)NC(=O)CSc1ncnc2sc(-c3ccccc3)cc12 (centres undefined) | inconclusive: 1.98% |  |
| Cc1ccccc1CN1CCN(C(C)C(=O)NNC(=O)c2ccc(F)cc2)CC1 (centres undefined) | inactive |  |
| O=C1c2ccccc2C(=O)N1c1ccc(Cl)cc1 |  | inconclusive: 11.6 µM [falling, partial curve] |
| O=C(CSc1ccc(-c2ccccn2)nn1)N1CCCCC1 | inconclusive: 29.6% |  |
| Cc1cc(C(=O)COC(=O)c2ccc(Cl)c(S(N)(=O)=O)c2)c(C)n1CC1CCCO1 (centres undefined) |  | inconclusive: 25.9 µM [falling, partial curve, poor fit] |
| Cc1ccc(S(=O)(=O)NCCC(=O)N2CCN(C/C=C/c3ccccc3)CC2)cc1 | inactive |  |
| COC(=O)c1ccc(NS(=O)(=O)c2cccc3cccnc23)cc1 | inconclusive: 3.67% |  |
| COc1cc(C(=O)Nc2ccc(O)cc2C(=O)O)ccc1OC(C)=O |  | inconclusive: 5.01 µM [rising, full curve, poor fit] |
| O=C(Nc1nnc(SCC(=O)N2CCCc3ccccc32)s1)c1ccc2ccccc2c1 | inactive |  |
| COc1ccccc1CN(C)C(C)C(=O)Nc1cccc(C(C)=O)c1 (centres undefined) | inconclusive: 12.5% |  |
| COc1cc(OC)cc(C(=O)NC2CCCN(Cc3ccc(Cl)cc3)C2)c1 (centres undefined) | inconclusive: -21.9% |  |
| Cc1ccc(O)c(NC(=O)CSc2n[nH]c(-c3ccccc3)n2)c1 |  | inconclusive: 5.01 µM [falling, partial curve, poor fit] |
| Fc1cccc2sc(Nc3nnc(-c4ccco4)o3)nc12 | inconclusive: 132% [cytotoxic] |  |
| C=CCN(C(=O)CN1CCCCC1)c1nc(-c2ccccc2)cs1 | inactive |  |
| COc1ccc(N(CC(=O)NC2CCCCC2)C(=O)CNC(=O)c2ccco2)c(OC)c1 |  | inconclusive: 23.1 µM [falling, partial curve, poor fit] |
| O=C(NCCC1=CCCCC1)c1cc(S(=O)(=O)N2CCOCC2)c(Cl)cc1Cl | inconclusive: -1.38% |  |
| Cc1ccccc1CNC(=O)c1ccc(Cl)c([N+](=O)[O-])c1 | inconclusive: 5.08% |  |
| N#CC(C#N)=Cc1cn(-c2ncc(C(F)(F)F)cc2Cl)c2ccccc12 | inconclusive: -0.0841% |  |
| COc1ccc(CC(=O)Nc2cccc(C(=O)Nc3cccc(C)c3)c2)cc1 |  | inconclusive: 3.55 µM [falling, full curve, poor fit] |
| CCOc1ccc(OCCCCNCCN)cc1 | inconclusive: 2.54% |  |
| COc1ccc(N=C(N)SCc2ccccn2)cc1 |  | inconclusive: 23.1 µM [falling, single point] |

| SMILES | activity change, negative = inhibition | Potency |
| --- | --- | --- |
| O=C(N/N=C/c1cccc(Oc2ccccc2)c1)c1ccc(O)cc1O | inconclusive: 1.87% |  |
| CCN(CC(=O)Nc1ccc2c(c1)OCCO2)Cc1cc(=O)oc2cc(C)c(C)cc12 |  | inconclusive: 23.1 µM [falling, single point] |
| COc1ccc(N2C(=O)CC(Sc3ncccc3C(=O)O)C2=O)cc1 (centres undefined) | inconclusive: 1.66% |  |
| O=C(Nc1ccccc1F)c1ccco1 |  | inconclusive: 23.1 µM [falling, partial curve] |
| Cc1ccc(CNC(=O)C(=O)NCC2OCCN2S(=O)(=O)c2ccc3c(c2)OCCO3)cc1 (centres undefined) | inconclusive: -5.38% |  |
| Cn1c(CSCc2ccc(F)cc2)nnc1SCC(=O)Nc1cccc(C(=O)O)c1 | inconclusive: -5.55% |  |
| Cc1ccc2cccc(SCC(=O)Nc3ccc(F)cc3)c2n1 | inconclusive: -14.2% |  |
| Cc1ccc(-c2cc(-c3ccc(C)cc3O)[nH]n2)cc1 |  | inconclusive: 31.6 µM [rising, partial curve] |
| COc1ccc(C(=O)NCCC2=CCCCC2)cc1[N+](=O)[O-] | inconclusive: -2.03% |  |
| CC1(C)C=C2C(=NN(c3ccccc3)C(N)=C2C#N)CO1 | inactive |  |
| O=C(NCCCn1ccnc1)c1ccncc1 | inconclusive: 2.31% |  |
| COc1ccc(NC(=O)CSc2c3c(nc4cc(Cl)ccc24)CCCC3)cc1OC |  | inconclusive: 4.11 µM [falling, partial curve] |
| O=C(NN=Cc1ccc(O)cc1O)c1ccccc1NS(=O)(=O)c1cccs1 | inconclusive: 2.36% |  |
| CC1=C/C(=N\OS(=O)(=O)c2ccccc2)C(C)=CC1=O |  | inconclusive: 9.2 µM [rising, partial curve, poor fit] |
| CC(C)(C)n1cnc2cc(NC(=O)c3cccs3)ccc21 |  | inconclusive: 22.4 µM [falling, single point] |
| O=C1c2oc3ccccc3c(=O)c2C(c2ccc(Br)cc2)N1c1ccccn1 (centres undefined) | inactive |  |
| Cc1cc(S(=O)(=O)N2CCCCC2)ccc1OCC(=O)N1CCCC1 | inactive |  |
| Cc1ccc(S(=O)(=O)N2CCN(C(=O)COC(=O)CNC(=O)c3ccccc3)CC2)c(C)c1 | inconclusive: 18% |  |
| CCc1ccc(N2CC(C(=O)Nc3ccc4c(c3)OCCO4)CC2=O)cc1 (centres undefined) | inactive |  |
| OC(CNCC1(N2CCCCC2)CCCCC1)COc1ccc(Cl)cc1Cl (centres undefined) | inconclusive: -10.3% |  |
| Cc1ccc(C)c(OCc2nc3ccc(S(=O)(=O)Nc4c(C)n(C)n(-c5ccccc5)c4=O)cc3[nH]2)c1 | inactive |  |
| COC(=O)c1cnn(-c2ccc(C(=O)Nc3cccc(C(C)=O)c3)cc2)c1N |  | inconclusive: 18.4 µM [falling, single point] |
| COc1cccc(NC(=O)Nc2ccc3c(c2)nnn3C)c1 | inconclusive: -16.6% |  |
| COc1cccc(/C=N/NC(=O)c2cccs2)c1 |  | inconclusive: 31.6 µM [falling, partial curve] |
| CCOc1cc(/C=C(\C#N)c2[nH]nc(N)c2C#N)ccc1O |  | inconclusive: 23.1 µM [falling, single point] |

Pulled by compound from the list above, five records:

| SMILES | activity change, negative = inhibition | Potency |
| --- | --- | --- |
| CCc1ccc(N2CC(C(=O)Nc3ccc4c(c3)OCCO4)CC2=O)cc1 (centres undefined) | inactive |  |
| COc1cccc(/C=N/NC(=O)c2cccs2)c1 |  | inconclusive: 31.6 µM [falling, partial curve] |
| CCN(CC(=O)Nc1ccc2c(c1)OCCO2)Cc1cc(=O)oc2cc(C)c(C)cc12 |  | inconclusive: 23.1 µM [falling, single point] |
| Cc1ccc(S(=O)(=O)N2CCN(C(=O)COC(=O)CNC(=O)c3ccccc3)CC2)c(C)c1 | inconclusive: 18% |  |
| COc1ccc(NC(=O)CSc2c3c(nc4cc(Cl)ccc24)CCCC3)cc1OC |  | inconclusive: 4.11 µM [falling, partial curve] |
